These results are taken from article PMC3189947.

Assay [1] addresses T1, HNF4G, hepatocyte nuclear factor 4, gamma (His-tagged, TF array II) (UniProt Q14541).
T1 sequence: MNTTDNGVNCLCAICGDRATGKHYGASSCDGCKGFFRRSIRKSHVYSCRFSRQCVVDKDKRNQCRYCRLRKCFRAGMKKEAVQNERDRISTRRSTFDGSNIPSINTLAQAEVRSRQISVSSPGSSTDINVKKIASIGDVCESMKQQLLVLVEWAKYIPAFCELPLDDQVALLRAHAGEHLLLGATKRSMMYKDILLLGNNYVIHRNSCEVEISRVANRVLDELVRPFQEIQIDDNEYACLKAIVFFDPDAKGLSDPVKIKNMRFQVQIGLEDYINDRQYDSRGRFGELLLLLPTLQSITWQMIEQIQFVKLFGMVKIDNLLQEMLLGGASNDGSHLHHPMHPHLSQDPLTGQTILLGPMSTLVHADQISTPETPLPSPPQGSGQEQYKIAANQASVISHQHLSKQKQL
The assay can be described thus: peptide or protein array; TransSignal Transcription Factor Protein Array II (Panomics/Affymetrix), 46 His-tagged transcription factors spotted in duplicate, probed with purified GST-Ankrd2 (15 ug/ml), detected with anti-GST and HRP secondary antibody, chemiluminescence; both purified.

The target in assay [2] is T2, HEY, hairy/enhancer-of-split related with YRPW motif 1 (His-tagged, TF array II) (UniProt Q9Y5J3).
T2 sequence: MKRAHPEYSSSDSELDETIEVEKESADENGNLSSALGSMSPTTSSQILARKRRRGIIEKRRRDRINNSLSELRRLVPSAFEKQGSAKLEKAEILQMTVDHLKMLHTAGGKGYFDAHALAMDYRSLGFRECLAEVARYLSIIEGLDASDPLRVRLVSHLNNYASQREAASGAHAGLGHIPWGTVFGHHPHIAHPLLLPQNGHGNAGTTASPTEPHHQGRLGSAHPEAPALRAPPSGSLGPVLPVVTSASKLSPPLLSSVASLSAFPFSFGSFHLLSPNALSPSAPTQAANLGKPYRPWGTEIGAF
The description is as above.

The target in assay [3] is T3, LHX2, LIM homeobox 2 (His-tagged, TF array II) (UniProt P50458).
T3 sequence: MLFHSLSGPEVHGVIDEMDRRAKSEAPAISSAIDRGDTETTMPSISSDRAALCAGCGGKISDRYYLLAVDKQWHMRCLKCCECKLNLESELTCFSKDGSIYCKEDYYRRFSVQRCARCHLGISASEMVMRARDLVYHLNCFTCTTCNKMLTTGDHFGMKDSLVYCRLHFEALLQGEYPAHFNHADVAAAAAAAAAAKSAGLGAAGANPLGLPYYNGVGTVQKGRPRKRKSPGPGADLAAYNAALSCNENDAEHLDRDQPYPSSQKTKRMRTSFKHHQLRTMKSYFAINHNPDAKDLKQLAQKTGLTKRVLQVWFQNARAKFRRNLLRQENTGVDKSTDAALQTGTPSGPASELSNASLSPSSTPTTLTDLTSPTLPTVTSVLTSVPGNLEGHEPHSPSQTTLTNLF
The description is as above.

Assay [4] concerns the target T4, NFIL3, nuclear factor, interleukin 3 regulated (His-tagged, TF array II) (UniProt Q16649).
T4 sequence: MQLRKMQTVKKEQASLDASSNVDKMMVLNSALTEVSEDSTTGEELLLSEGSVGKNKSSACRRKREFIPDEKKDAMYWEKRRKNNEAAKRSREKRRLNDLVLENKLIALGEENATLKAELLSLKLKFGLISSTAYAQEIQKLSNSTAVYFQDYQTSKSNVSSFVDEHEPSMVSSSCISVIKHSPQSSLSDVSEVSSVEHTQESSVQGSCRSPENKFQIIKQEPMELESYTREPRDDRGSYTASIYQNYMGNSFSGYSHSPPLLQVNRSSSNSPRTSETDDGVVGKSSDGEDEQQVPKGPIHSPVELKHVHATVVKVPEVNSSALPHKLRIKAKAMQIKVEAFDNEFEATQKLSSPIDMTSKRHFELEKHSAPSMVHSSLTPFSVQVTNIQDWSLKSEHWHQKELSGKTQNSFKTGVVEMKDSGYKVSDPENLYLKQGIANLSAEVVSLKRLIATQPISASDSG
Described as above.

Assay [5] deals with T5, NR112, nuclear receptor subfam. 1 (His-tagged, TF array II) (UniProt O75469).
T5 sequence: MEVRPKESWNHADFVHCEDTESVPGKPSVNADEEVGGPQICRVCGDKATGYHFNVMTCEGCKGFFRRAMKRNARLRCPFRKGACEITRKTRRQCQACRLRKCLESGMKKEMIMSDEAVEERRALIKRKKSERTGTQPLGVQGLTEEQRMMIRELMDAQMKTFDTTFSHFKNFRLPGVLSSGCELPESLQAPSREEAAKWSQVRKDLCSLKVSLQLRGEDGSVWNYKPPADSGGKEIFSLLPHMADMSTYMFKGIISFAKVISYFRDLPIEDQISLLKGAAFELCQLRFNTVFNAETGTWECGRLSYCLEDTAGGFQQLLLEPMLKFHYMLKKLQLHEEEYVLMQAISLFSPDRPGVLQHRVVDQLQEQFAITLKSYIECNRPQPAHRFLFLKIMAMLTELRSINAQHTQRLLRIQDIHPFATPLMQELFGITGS
Described as above.

Assay [6] addresses T6, Jun B, a proto-oncogene (His-tagged, TF array II) (UniProt P17275).
T6 sequence: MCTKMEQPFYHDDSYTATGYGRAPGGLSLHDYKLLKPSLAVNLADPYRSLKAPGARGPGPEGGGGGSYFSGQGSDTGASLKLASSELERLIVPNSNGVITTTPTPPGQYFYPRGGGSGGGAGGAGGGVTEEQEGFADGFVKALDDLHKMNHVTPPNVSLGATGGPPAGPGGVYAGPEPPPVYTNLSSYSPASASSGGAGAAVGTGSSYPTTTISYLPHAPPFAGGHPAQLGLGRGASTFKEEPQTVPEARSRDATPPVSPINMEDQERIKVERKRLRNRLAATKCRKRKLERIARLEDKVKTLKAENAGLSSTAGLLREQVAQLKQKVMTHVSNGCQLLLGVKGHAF
The assay is described as above.

In the next assay the target is GST-Ankrd2 (A, aa 5-333). Put plainly: pull-down; GST fusion proteins on glutathione-Sepharose beads incubated 2-12 h at 4 C with cell lysate in 50 mM HEPES pH 7.0, 250 mM NaCl, 0.1% NP-40, protease inhibitors; washed, SDS-PAGE, immunoblot; only the target purified. In general terms: A western blot detects proteins with antibodies after separation by electrophoresis.

Assay [7] concerns the target GST-Ankrd2 CA (aa 121-333). The description is as above.
The target in a further assay is GST-Ankrd2 NA (aa 5-284). The assay is described as above.

Results are given in words; binding and its absence hold for the method and conditions named. Binding can be weak; no strength is given. For part of these data: Sequences can lack the tags named with a protein. For part of these data: Binding seen in cells or lysates may run through a third protein.

GST-Ankrd2 (A, aa 5-333): the binding result in assay [1] is listed as “binds weakly”; in assay [2] it was “binds”; in [3], “binds”; in assay [4], “binds”; in assay [5], “binds”; in [6] it was “binds”.

B1: telethonin/Tcap (protein, UniProt O15273 1-167)
chain: MATSELSCEVSEENCERREAFWAEWKDLTLSTRPEEGCSLHEEDTQRHETYHQQGQCQVLVQRSPWLMMRMGILGRGLQEYQLPYQRVLPLPIFTPAKMGATKEEREDTPIQLQELLALETALGGQCVDRQEVAEITKQLPPVVPVSKPGALRRSLSRSMSQEAQRG
Take B1: the binding entry is “binds” with GST-Ankrd2 (A, aa 5-333); “binds” in [7]; “binds” with GST-Ankrd2 NA (aa 5-284).
